Data on 1 molecule can be found in paper PMC12858993.

For this assay, the target named is T1, Flag-Fbxo2 (UniProt Q9UK22).
T1 sequence: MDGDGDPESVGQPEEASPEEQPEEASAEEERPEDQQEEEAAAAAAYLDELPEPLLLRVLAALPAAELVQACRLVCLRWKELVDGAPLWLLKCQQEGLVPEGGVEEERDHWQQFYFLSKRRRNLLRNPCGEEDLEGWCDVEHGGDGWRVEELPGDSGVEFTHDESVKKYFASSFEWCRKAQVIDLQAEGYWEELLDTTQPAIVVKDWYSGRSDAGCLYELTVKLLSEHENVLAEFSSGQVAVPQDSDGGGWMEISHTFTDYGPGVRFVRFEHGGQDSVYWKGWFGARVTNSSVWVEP
As to the kind of experiment: co-IP; HEK293T cells transfected with the indicated plasmids (YTHDF2 deletion mutants), 10 uM MG132 for 12 h; IP and Western blot.

These are yes or no findings as the source states them, for the method shown. Binding seen in cells or lysates may run through a third protein. Some results given as binding are weak or reduced against the parent protein; the word gives no strength. Tags and fused reporters may be left off the sequences shown.

B1: YTHDF2 N-terminal domain (amino acids 1-384) (domain or fragment, UniProt Q9Y5A9 1-384)
chain: MSASSLLEQRPKGQGNKVQNGSVHQKDGLNDDDFEPYLSPQARPNNAYTAMSDSYLPSYYSPSIGFSYSLGEAAWSTGGDTAMPYLTSYGQLSNGEPHFLPDAMFGQPGALGSTPFLGQHGFNFFPSGIDFSAWGNNSSQGQSTQSSGYSSNYAYAPSSLGGAMIDGQSAFANETLNKAPGMNTIDQGMAALKLGSTEVASNVPKVVGSAVGSGSITSNIVASNSLPPATIAPPKPASWADIASKPAKQQPKLKTKNGIAGSSLPPPPIKHNMDIGTWDNKGPVAKAPSQALVQNIGQPTQGSPQPVGQQANNSPPVAQASVGQQTQPLPPPPPQPAQLSVQQQAAQPTRWVAPRNRGSGFGHNGVDGNGVGQSQAGSGSTPSE
Turning to B1, the binding entry is on record as “binds”.
